## Screening data, single-dose tests

Chains of the proteins cited; added tags and fusions are not shown.
UniProt P9WNZ1, whole entry: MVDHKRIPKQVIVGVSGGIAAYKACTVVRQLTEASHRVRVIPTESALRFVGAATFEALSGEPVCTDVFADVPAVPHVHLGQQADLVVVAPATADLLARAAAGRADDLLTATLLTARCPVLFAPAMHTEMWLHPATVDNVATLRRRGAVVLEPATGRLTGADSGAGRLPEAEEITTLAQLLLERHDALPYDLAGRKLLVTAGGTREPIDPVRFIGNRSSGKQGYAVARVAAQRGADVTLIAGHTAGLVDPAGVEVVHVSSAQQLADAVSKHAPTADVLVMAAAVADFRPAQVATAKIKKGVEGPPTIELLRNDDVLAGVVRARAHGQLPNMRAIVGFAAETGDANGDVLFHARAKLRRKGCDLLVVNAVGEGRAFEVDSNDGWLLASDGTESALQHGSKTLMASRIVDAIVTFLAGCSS
UniProt P9WFT3, whole entry: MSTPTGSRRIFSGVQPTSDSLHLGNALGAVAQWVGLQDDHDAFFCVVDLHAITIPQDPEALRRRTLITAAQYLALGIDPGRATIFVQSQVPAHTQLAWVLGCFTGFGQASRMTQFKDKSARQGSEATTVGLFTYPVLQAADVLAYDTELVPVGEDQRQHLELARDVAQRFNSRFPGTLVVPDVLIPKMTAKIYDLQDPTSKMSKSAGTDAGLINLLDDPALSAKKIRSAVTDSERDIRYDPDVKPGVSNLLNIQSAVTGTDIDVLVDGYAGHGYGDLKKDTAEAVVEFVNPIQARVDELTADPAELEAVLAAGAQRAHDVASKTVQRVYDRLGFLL

A: 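Coenzyme A biosynthesis protein CoaBC, Mycobacterium tuberculosis (UniProt P9WNZ1). Enzyme assay of CoaBC with a phosphate dye (Biomol Green) read at 650 nm. Tested at 30 µM. Direction is inferred from only a few compounds that gave an IC50; most scored high, so higher reads as stronger inhibition. Most strong results did not repeat in a second test. Size under these conditions: about 67,000 compounds, about 40 of them at 50% or above in at least one test.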
B: 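Enzyme assay of tryptophanyl-tRNA synthetase; the read-out is not stated. Target: Tryptophan-tRNA ligase, Mycobacterium tuberculosis (UniProt P9WFT3). Compounds at 10 µM. Higher most likely means stronger inhibition; the record gives no direction and few retests gave an IC50. About 65,000 compounds were tested under these conditions; 0.098% (about 64) showed 50% or more at least once.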

Each number is a percent effect as filed. How 0% and 100% were set is not recorded. Most values in the screen are low, and negative values occur. This is an unselected part of the compounds tested. A dash means the value is not listed here; it may have been measured.

| structure | A | B |
|---|---|---|
| `Cn1nc(COCC2CC2)c2c1CCN(Cc1cccs1)C2` | 3.465% | - |
| `COc1c(NC(=O)N(C)CCOc2ccccc2)c(C)nn1C` | -1.927% | 1.87% |
| `COCCN1CCC2(CCCN(c3ncccn3)C2)C1` (stereo not given) | 2.85% | 0.1762% |
| `CNS(=O)(=O)CC1CCCN1C(=O)c1ccc(C)c(C)c1` (stereo not given) | 0% | 3.056% |
| `Cn1cc(CN2CCCC(Cn3cc(CCCO)nn3)C2)cn1` (stereo not given) | 6.746% | -3.402% |
| `Cc1nc(CCNC(=O)NC2CCCN(c3ncccn3)C2)cs1` (stereo not given) | 8.562% | -0.4122% |
| `CCCn1cnnc1CNCc1c[nH]nc1-c1ccc(F)cc1` | -6.024% | 3.185% |
| `COC(=O)c1cccn1C1CCN(Cc2cnc3ccccn23)CC1` | 0.8043% | 1.533% |
| `OC(c1cccs1)C1CCN(c2ncccn2)CC1` (stereo not given) | 2.805% | 0.7947% |
| `Cc1c(CC(=O)N2CCN(C(C)C)CC2)nnn1-c1ccccc1` | 3.807% | 3.163% |
| `COc1ccccc1C1Cn2ccnc2CN1Cc1c[nH]nc1C` (stereo not given) | -6.061% | -4.45% |
| `CN1CC(c2cc(O)nc(NCc3cccc(F)c3)n2)CC1=O` (stereo not given) | 0% | - |
| `Fc1ccc(CN2CCCC(Cn3cncn3)C2)c2ncccc12` (stereo not given) | -22.73% | 0.7457% |
| `O=C(C1CCOC1)N1CCC(Cn2cc(-c3ccsc3)nn2)CC1` (stereo not given) | -1.288% | -0.08796% |
| `CN(C)C(=O)c1nnc2ccc(N3CCOCC3)cc2n1` | -0.2309% | 0.5181% |
| `CC(C)c1nc(C(=O)N2CCOCC2CC(=O)c2ccco2)c[nH]1` (stereo not given) | 3.104% | -5.826% |
| `CN1CCN(C2CCN(CCOc3ccccc3)CC2)C1=O` | 1.935% | -0.2921% |
| `Cc1ccc(F)c(NC(=O)CCC(=O)N(C)Cc2cc(C3CC3)[nH]n2)c1` | 0.7371% | -2.763% |
| `c1c[nH]c(CN2CCCC(Cc3ccc(NC4CCCC4)nn3)C2)n1` (stereo not given) | 6.176% | -1.291% |
| `Cn1ccnc1C1CCN(C(=O)COCC(F)(F)C(F)F)CC1` | -1.613% | -4.678% |
| `Cc1nc(C)n(CC2CN(CCCc3ccccc3)CCO2)n1` (stereo not given) | -3.667% | -1.175% |
| `CC(C)c1sc(Cl)nc1C(=O)N1CCN(c2ccccn2)CC1` | -0.3797% | 2.169% |
| `CCN(C)c1ncnc2c1CCN(C(=O)c1ccoc1C)CC2` | 4.078% | -4.418% |
| `Cc1ccnn1CCCNC(=O)C1CCN(S(C)(=O)=O)CC1` | 1.503% | 1.22% |
| `CCS(=O)(=O)N1CC[C@@H]2[C@H](COCC3CC3)CN(C)C(=O)[C@@H]2CC1` | -2.254% | -6.038% |
| `O=C(CN1CCC(c2ccnn2CCO)CC1)NCc1cccs1` | 1.028% | 0.7081% |
| `O=C(NCC1(N2CCOCC2)CCSC1)Nc1ccc(F)cc1` (stereo not given) | -3.625% | 2.09% |
| `CC1(C)CN(S(=O)(=O)N2CCCC2)CC1c1ccccc1` (stereo not given) | -0.6211% | -2.605% |
| `Cc1cccc(CO[C@@H]2CC[C@H]3[C@H]2OCCN3Cc2nccs2)n1` | -0.9677% | -0.8364% |
| `CN(CCCNc1cc(N2CCCC2CO)ncn1)S(C)(=O)=O` (stereo not given) | 1.919% | -0.9266% |
| `CN(CCn1cccn1)C1CCCN(Cc2noc(C3CC3)n2)C1` (stereo not given) | -1.805% | 0.5869% |
| `CCCC1CCCN(Cc2csc(-c3cnn(C)c3)n2)CC1` (stereo not given) | 2.926% | 0.1572% |
| `C1=C(c2c[nH]c3ncccc23)CCN(Cc2nnc(C3CC3)o2)C1` | -4.046% | -0.3589% |
| `CCc1nc2n(n1)CC(NCc1cnc(-c3ccccc3)nc1)CC2` (stereo not given) | 2.427% | 11.67% |
| `Nc1nc(CCC(=O)N2C[C@H](c3ccccc3)[C@@H](N)C2)cs1` | -0.4132% | -3.191% |
| `O=C(NCCc1ccccn1)Nc1cc(C(F)(F)F)c[nH]c1=O` | 2.117% | -1.161% |
| `CC(=O)N(Cc1ccsc1)c1ccccc1` | 2.73% | 2.728% |
| `CC(Cn1cccn1)NS(=O)(=O)Cc1ccccc1` (stereo not given) | 3.913% | 15.13% |
| `O=C(NCC1CC1)[C@@H]1CCO[C@@H]2CCN(Cc3ccc(F)cc3)C[C@H]21` | 5.212% | -5.37% |
| `COc1ccc(-c2cnc(N)nc2C2CCCNC2)cc1` (stereo not given) | 7.763% | -3.52% |

Repeated from the top, 3 entries:

structure	A	B
Cn1nc(COCC2CC2)c2c1CCN(Cc1cccs1)C2	3.465%	-
COc1c(NC(=O)N(C)CCOc2ccccc2)c(C)nn1C	-1.927%	1.87%
COCCN1CCC2(CCCN(c3ncccn3)C2)C1 (stereo not given)	2.85%	0.1762%

Data taken from ChEMBL document CHEMBL3988442, “University of Dundee, Small-Polar-MMV Screening Library” (2021).